Assay results: paper doi:10.1101/2023.07.25.550456
Results are given in words; binding and its absence hold for the method and conditions named. Some entries that bind do so weakly or less than the wild type.

The chains behind the UniProt entries cited, without tags or fusion partners.
UniProt Q13148: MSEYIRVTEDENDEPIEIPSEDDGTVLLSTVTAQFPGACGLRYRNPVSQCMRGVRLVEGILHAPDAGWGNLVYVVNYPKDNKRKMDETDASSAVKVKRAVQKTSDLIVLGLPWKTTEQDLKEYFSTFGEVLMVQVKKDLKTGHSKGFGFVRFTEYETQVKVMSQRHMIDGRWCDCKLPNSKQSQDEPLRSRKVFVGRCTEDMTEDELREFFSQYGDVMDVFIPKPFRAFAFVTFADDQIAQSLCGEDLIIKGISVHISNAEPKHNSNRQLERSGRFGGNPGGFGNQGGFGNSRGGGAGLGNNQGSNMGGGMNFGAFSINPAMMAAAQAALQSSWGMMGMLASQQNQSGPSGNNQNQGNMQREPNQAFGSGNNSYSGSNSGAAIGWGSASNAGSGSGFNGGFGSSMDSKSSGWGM
UniProt P35637: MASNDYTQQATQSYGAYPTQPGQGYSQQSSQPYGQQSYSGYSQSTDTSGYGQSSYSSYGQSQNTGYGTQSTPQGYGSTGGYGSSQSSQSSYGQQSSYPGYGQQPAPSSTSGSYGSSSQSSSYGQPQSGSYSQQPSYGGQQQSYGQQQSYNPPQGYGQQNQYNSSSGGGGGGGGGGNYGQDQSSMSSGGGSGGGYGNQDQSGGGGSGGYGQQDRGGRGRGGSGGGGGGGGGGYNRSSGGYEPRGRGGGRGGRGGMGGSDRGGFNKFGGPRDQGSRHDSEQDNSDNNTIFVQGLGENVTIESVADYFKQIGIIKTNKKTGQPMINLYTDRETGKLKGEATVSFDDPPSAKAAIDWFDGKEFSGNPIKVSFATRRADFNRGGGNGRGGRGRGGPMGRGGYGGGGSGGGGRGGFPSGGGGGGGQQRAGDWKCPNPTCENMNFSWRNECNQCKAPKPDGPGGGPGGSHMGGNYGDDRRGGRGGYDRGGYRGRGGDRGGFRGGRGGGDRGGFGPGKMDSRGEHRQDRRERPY
UniProt Q15717: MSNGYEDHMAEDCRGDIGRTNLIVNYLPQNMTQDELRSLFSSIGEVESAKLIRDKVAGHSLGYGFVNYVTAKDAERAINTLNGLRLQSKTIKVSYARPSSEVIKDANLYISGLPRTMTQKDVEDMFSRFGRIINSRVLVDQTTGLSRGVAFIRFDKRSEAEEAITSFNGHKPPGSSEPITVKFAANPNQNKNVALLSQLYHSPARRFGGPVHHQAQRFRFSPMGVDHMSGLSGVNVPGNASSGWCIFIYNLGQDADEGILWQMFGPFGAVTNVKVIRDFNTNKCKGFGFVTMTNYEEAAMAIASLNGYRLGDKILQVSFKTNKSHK

What was measured:
[1] = molecular target: TDP-43 fused to RFP and the microtubule-binding domain of Tau (TDP-RFP-MBD) (UniProt Q13148); assay: microtubule bench assay
[2] = molecular target: FUS fused to RFP and the microtubule-binding domain of Tau (FUS-RFP-MBD) (UniProt P35637); assay: microtubule bench assay

binding [1] | binding [2] | Substance
binds |  | FUS fused to GFP (prey) (from UniProt P35637 1-526)
binds |  | HuR-GFP (from UniProt Q15717 1-326)
 | binds | TDP-43 fused to GFP (prey) (from UniProt Q13148 1-414)
